# PubChem BioAssay AID1224830, NIAID | 2016
# Aim: 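Host factors that control LPS-induced TNF expression in human macrophages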 (primary screen)
# Cells: human THP-1 monocytic leukaemia cells, TNF dual-luciferase reporter clone, PMA-differentiated to macrophage-like cells
# Reagents: siRNA pool against human genes, 50 nM
# Time to read-out: LPS for 4 h, given about 3 days after siRNA transfection
# Conditions: bacterial LPS (TLR4 ligand), 10 ng/ml
# Read-out: 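TNF firefly reporter luminescence divided by renilla, normalised to the plate median, then turned into a robust z-score for each replicate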
# Scale: TNF reporter robust z-score: higher = stronger TNF reporter response to LPS
# Hit rule: 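Each well counts as active if its z-score is over 2.8 or under -1.5; controls are left without a call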
# In all, the deposit lists about 18,000 reagents; below is an unselected part. About 2,900 of all reagents (16%) count as active. 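Calls are made per well; low scores hint the gene aids the LPS response, high scores that it dampens it.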 A number with no mark means an inactive call. Repeated entries: four replicate wells of each siRNA pool.
The first 7 entries, ahead of the listing:
Target gene,TNF reporter robust z-score
ARHGAP4 (Rho GTPase activating protein 4),-0.22
ARHGAP4 (Rho GTPase activating protein 4),0.11
ARHGAP4 (Rho GTPase activating protein 4),0.1
ARHGAP4 (Rho GTPase activating protein 4),-0.47
GLP2R (glucagon like peptide 2 receptor),-0.15
GLP2R (glucagon like peptide 2 receptor),-0.19
GLP2R (glucagon like peptide 2 receptor),-0.85

The list itself, repeating the preview:
Target gene,TNF reporter robust z-score
ARHGAP4 (Rho GTPase activating protein 4),-0.22
ARHGAP4 (Rho GTPase activating protein 4),0.11
ARHGAP4 (Rho GTPase activating protein 4),0.1
ARHGAP4 (Rho GTPase activating protein 4),-0.47
GLP2R (glucagon like peptide 2 receptor),-0.15
GLP2R (glucagon like peptide 2 receptor),-0.19
GLP2R (glucagon like peptide 2 receptor),-0.85
GLP2R (glucagon like peptide 2 receptor),-0.42
CPN2 (carboxypeptidase N subunit 2),-0.3
CPN2 (carboxypeptidase N subunit 2),-0.01
CPN2 (carboxypeptidase N subunit 2),-0.15
CPN2 (carboxypeptidase N subunit 2),-0.47
"YES1 (YES proto-oncogene 1, Src family tyrosine kinase)",-0.12
"YES1 (YES proto-oncogene 1, Src family tyrosine kinase)",0.65
"YES1 (YES proto-oncogene 1, Src family tyrosine kinase)",0.14
"YES1 (YES proto-oncogene 1, Src family tyrosine kinase)",0.71
TRAK2 (trafficking kinesin protein 2),0.44
TRAK2 (trafficking kinesin protein 2),0.73
TRAK2 (trafficking kinesin protein 2),-1.68 (active)
TRAK2 (trafficking kinesin protein 2),0.69
ASTL (astacin like metalloendopeptidase),0.57
ASTL (astacin like metalloendopeptidase),0.69
ASTL (astacin like metalloendopeptidase),0.27
ASTL (astacin like metalloendopeptidase),0.52
MRGPRD (MAS related GPR family member D),0.64
MRGPRD (MAS related GPR family member D),0.78
MRGPRD (MAS related GPR family member D),0.17
MRGPRD (MAS related GPR family member D),0.6
"GAPDHS (glyceraldehyde-3-phosphate dehydrogenase, spermatogenic)",0.06
"GAPDHS (glyceraldehyde-3-phosphate dehydrogenase, spermatogenic)",-0.16
"GAPDHS (glyceraldehyde-3-phosphate dehydrogenase, spermatogenic)",-0.15
"GAPDHS (glyceraldehyde-3-phosphate dehydrogenase, spermatogenic)",0.23
RNASET2 (ribonuclease T2),0.09
RNASET2 (ribonuclease T2),1.74
RNASET2 (ribonuclease T2),2.14
RNASET2 (ribonuclease T2),2.49
ELF3 (E74 like ETS transcription factor 3),0.63
ELF3 (E74 like ETS transcription factor 3),2.04
ELF3 (E74 like ETS transcription factor 3),1.05
ELF3 (E74 like ETS transcription factor 3),1.58
IRX1 (iroquois homeobox 1),2.48
IRX1 (iroquois homeobox 1),2.89 (active)
IRX1 (iroquois homeobox 1),0.84
IRX1 (iroquois homeobox 1),-0.11
FLNA (filamin A),0.31
FLNA (filamin A),0.94
FLNA (filamin A),0.46
FLNA (filamin A),1.61
HNRNPA1 (heterogeneous nuclear ribonucleoprotein A1),-1.94 (active)
HNRNPA1 (heterogeneous nuclear ribonucleoprotein A1),-0.49
HNRNPA1 (heterogeneous nuclear ribonucleoprotein A1),-0.1
HNRNPA1 (heterogeneous nuclear ribonucleoprotein A1),-0.57
OR2M2 (olfactory receptor family 2 subfamily M member 2),-1.01
OR2M2 (olfactory receptor family 2 subfamily M member 2),-0.2
OR2M2 (olfactory receptor family 2 subfamily M member 2),-1.29
OR2M2 (olfactory receptor family 2 subfamily M member 2),-0.83
SORBS2 (sorbin and SH3 domain containing 2),0.38
SORBS2 (sorbin and SH3 domain containing 2),0.27
SORBS2 (sorbin and SH3 domain containing 2),0.78
SORBS2 (sorbin and SH3 domain containing 2),0.79
LONRF1 (LON peptidase N-terminal domain and ring finger 1),0.65
LONRF1 (LON peptidase N-terminal domain and ring finger 1),-0.27
LONRF1 (LON peptidase N-terminal domain and ring finger 1),-0.61
LONRF1 (LON peptidase N-terminal domain and ring finger 1),0.06
ZNF628 (zinc finger protein 628),2.71
ZNF628 (zinc finger protein 628),2.44
ZNF628 (zinc finger protein 628),1.36
ZNF628 (zinc finger protein 628),1.37
RRAGA (Ras related GTP binding A),-1.29
RRAGA (Ras related GTP binding A),-0.87
RRAGA (Ras related GTP binding A),-1.38
RRAGA (Ras related GTP binding A),-0.72
CDC25A (cell division cycle 25A),1.47
CDC25A (cell division cycle 25A),1.27
CDC25A (cell division cycle 25A),3.37 (active)
CDC25A (cell division cycle 25A),2.49
EMP3 (epithelial membrane protein 3 (MAM blood group)),-0.43
EMP3 (epithelial membrane protein 3 (MAM blood group)),0.81
EMP3 (epithelial membrane protein 3 (MAM blood group)),0.59
EMP3 (epithelial membrane protein 3 (MAM blood group)),0.67
KAAG1 (kidney associated DCDC2 antisense RNA 1),-0.37
KAAG1 (kidney associated DCDC2 antisense RNA 1),0.38
KAAG1 (kidney associated DCDC2 antisense RNA 1),0.3
KAAG1 (kidney associated DCDC2 antisense RNA 1),2.34
NOBOX (NOBOX oogenesis homeobox),0.19
NOBOX (NOBOX oogenesis homeobox),-0.11
NOBOX (NOBOX oogenesis homeobox),-1.39
NOBOX (NOBOX oogenesis homeobox),1.43
SYP (synaptophysin),-1.17
SYP (synaptophysin),-0.45
SYP (synaptophysin),-1
SYP (synaptophysin),-0.3
"HAAO (3-hydroxyanthranilate 3,4-dioxygenase)",-0.41
"HAAO (3-hydroxyanthranilate 3,4-dioxygenase)",-0.34
"HAAO (3-hydroxyanthranilate 3,4-dioxygenase)",-0.18
"HAAO (3-hydroxyanthranilate 3,4-dioxygenase)",0.32
SAMD15 (sterile alpha motif domain containing 15),0.92
SAMD15 (sterile alpha motif domain containing 15),-0.26
SAMD15 (sterile alpha motif domain containing 15),-0.28
SAMD15 (sterile alpha motif domain containing 15),-0.8
ANKS4B (ankyrin repeat and sterile alpha motif domain containing 4B),-1.17
ANKS4B (ankyrin repeat and sterile alpha motif domain containing 4B),-0.62
ANKS4B (ankyrin repeat and sterile alpha motif domain containing 4B),-0.45
ANKS4B (ankyrin repeat and sterile alpha motif domain containing 4B),-0.69
VCL (vinculin),-0.22
VCL (vinculin),-1.17
VCL (vinculin),-0.12
VCL (vinculin),-1.11
SDR9C7 (short chain dehydrogenase/reductase family 9C member 7),-1.38
SDR9C7 (short chain dehydrogenase/reductase family 9C member 7),-1
SDR9C7 (short chain dehydrogenase/reductase family 9C member 7),-1.3
SDR9C7 (short chain dehydrogenase/reductase family 9C member 7),-0.69
